Results: PubChem BioAssay AID1487 (National Center for Advancing Translational Sciences (NCATS), 2009)
Some of the results follow. These are further read-outs of the screen, such as a control signal, another cell line or another target. No call is given for them. Compounds called inactive in the main read-out are mostly missing here. Potencies come from curve fits of mixed quality, noted in brackets.

Assay: qHTS Assay for Modulators of Lamin A Splicing
Conditions: HeLa LMNA splicing GFP/RFP minigene ratio, 48 h
Outline: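 Read-out is the ratio of GFP to DsRed2 object intensity, acquired by 488 nm laser-scanning cytometry on HeLa lamin A-EGFP minigene reporter cells. Compound incubation 48 hrs at 37 °C in Opti-MEM with 2% FBS; DMSO 0.5% final.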

[1] = measured here: GFP splicing reporter channel
[2] = measured here: RFP viability control channel

Row | SMILES | AC50 [1] | AC50 [2]
1 | OC(CNc1ccccc1)COc1ccc(OCC(O)CNc2ccccc2)cc1 (stereo unspecified) | 6.31 µM [rising, full curve, poor fit] | –
2 | COc1cc(/C=C(\C#N)c2ccccn2)ccc1OCC(=O)Nc1c(Cl)cccc1Cl | 10 µM [rising, partial curve] | 11.2 µM [rising, partial curve]
3 | Cc1ccc(-n2c(SCc3ccccc3C)nc3[nH]ncc3c2=O)cc1C | – | 0.00398 µM [rising, full curve, poor fit]
4 | Cc1[nH]n(-c2ccccc2)c(=O)c1/C=N/N(C)c1ccccc1 | 17.8 µM [rising, partial curve] | –
5 | O=c1cc(CN2CCN(C/C=C/c3ccccc3)CC2)c2cc(O)ccc2o1 | 6.31 µM [rising, partial curve, poor fit] | 11.2 µM [rising, partial curve]
6 | O=C(NCc1ccccc1Cl)C(=O)NCC(c1cccs1)S(=O)(=O)c1ccccc1 (stereo unspecified) | 35.5 µM [falling, single point] | –
7 | COc1ccc(Oc2ccc(/C=C/C(=O)c3ccc(O)cc3)cc2[N+](=O)[O-])cc1 | 1.26 µM [rising, full curve, poor fit] | 35.5 µM [falling, single point]
8 | CC(NC(=O)c1cccc2ccccc12)c1ccc2c(c1)CCCC2 (stereo unspecified) | – | 3.98 µM [rising, single point]
9 | CCN(CC)S(=O)(=O)c1ccc(/C=C/C(=O)Nc2ccc(F)cc2F)cc1 | – | 22.4 µM [rising, partial curve, poor fit]
10 | CCOc1ccc(OCc2ccc(C(=O)N3CCOCC3)cc2)cc1 | – | 31.6 µM [rising, single point]
11 | Cc1cccc(-n2ncc(C(=O)Nc3ccc4c(c3)OCO4)c2C2CCN(C(=O)OC(C)(C)C)CC2)c1 | – | 35.5 µM [rising, single point]
12 | CN(C)S(=O)(=O)c1ccc(N2CCCC2)c(C(=O)Nc2nc3ccc(F)cc3s2)c1 | 3.55 µM [rising, partial curve] | 3.16 µM [rising, partial curve]
13 | Cc1ccc(C(=O)OCn2ncc(Cl)c(Cl)c2=O)cc1 | 3.16 µM [falling, full curve] | 3.55 µM [falling, full curve]
14 | CCCCNc1c(C(=O)OCC)c(=O)[nH]c2ccccc12 | 10 µM [rising, partial curve] | 12.6 µM [rising, single point]
15 | CCc1ccc(/C=C2\Oc3cc(OS(C)(=O)=O)ccc3C2=O)cc1 | – | 35.5 µM [rising, single point]
16 | O=C(O)C1CSC(c2ccccc2Cl)N1C(=O)c1ccc(Cl)cc1 (stereo unspecified) | 5.62 µM [falling, partial curve, poor fit] | 10 µM [falling, partial curve, poor fit]
17 | O=C(CSc1nnc(C2CC2)n1Cc1ccccc1)c1cc2ccccc2o1 | – | 11.2 µM [rising, partial curve, poor fit]
18 | Cc1csc(N/N=C/c2ccc(O)c([N+](=O)[O-])c2)n1 | – | 31.6 µM [rising, single point]
19 | O=C(NCCCN1CCOCC1)c1ccc(Sc2ccc(Br)cc2)c([N+](=O)[O-])c1 | – | 1 µM [rising, full curve, poor fit]
20 | O=C1NC(=Nc2ccc(Cl)cc2)SC1Cc1cc(Cl)ccc1Cl (stereo unspecified) | – | 35.5 µM [rising, single point]

Row | SMILES | AC50 [1] | AC50 [2]
21 | COC(=O)c1ccc(OC)c(CSc2nnc(COc3cccc(C)c3)o2)c1 | 35.5 µM [rising, single point] | 31.6 µM [rising, single point]
22 | Cc1ccc(NS(=O)(=O)c2cc(C(=O)Nc3cccc(N(C)S(C)(=O)=O)c3)ccc2C)c(C)c1 | – | 35.5 µM [rising, single point]
23 | COc1cc(OC)cc(C(=O)N[C@H](C(=O)NCc2cccs2)C(C)C)c1 | – | 0.0158 µM [rising, full curve, poor fit]
24 | O=C(Nc1ccc(F)cc1)OCCN1CCN(Cc2ccccc2)CCC1=O | 35.5 µM [rising, single point] | 35.5 µM [rising, single point]
25 | CC(C)N1CCC2(CC1)N=C(c1ccc3c(c1)OCO3)CC(c1cc(Cl)ccc1O)N2 (stereo unspecified) | 3.16 µM [falling, single point] | –
26 | Cc1ccc(NC(=S)NCCSc2ccc(Cl)cc2)c(C)c1 | 35.5 µM [rising, single point] | –
27 | CCCC(O)(CCC)C(=O)NN(C(=O)CCl)c1cccc(C)c1 | – | 35.5 µM [falling, single point]
28 | CC(C)CNC(=O)Nc1ccc(F)c(Cl)c1 | – | 5.62 µM [rising, partial curve, poor fit]
29 | Cc1cc(-n2c(C)cc(C(=O)CCl)c2C)no1 | – | 22.4 µM [rising, single point]
30 | O=C(Nc1cc(Cl)cc(Cl)c1)C(c1ccccc1)N1CCCCC1 (stereo unspecified) | – | 7.94 µM [rising, partial curve]
31 | CN(c1ccc(OCC(=O)Nc2nc3ccccc3s2)cc1)S(=O)(=O)c1ccccc1 | – | 17.8 µM [rising, single point]
32 | Cc1ccc2[nH]c(CSc3nnc(NC(=O)c4ccccc4F)s3)cc(=O)c2c1 | 10 µM [falling, partial curve, poor fit] | 15.8 µM [falling, partial curve]
33 | O=C(CCSCc1cccc(Cl)c1)NCc1ccc(F)cc1Cl | – | 35.5 µM [falling, partial curve, poor fit]
34 | Cc1cccc(CCNC(=O)c2ccc(CSCc3cccc(Cl)c3)o2)c1 | 12.6 µM [rising, partial curve] | 12.6 µM [rising, partial curve]
35 | O=c1cc(CCl)nc2sc3ccccc3n12 | 0.00501 µM [falling, full curve, poor fit] | –
36 | Cc1nn(Cc2ccccc2)c(Cl)c1/C=N/NC(=O)CNc1cccc(C(F)(F)F)c1 | – | 20 µM [rising, partial curve, poor fit]
37 | CCOc1ccc(NC(=O)c2c(Nc3ccccc3C)sc(C(=O)c3ccc(Cl)cc3)c2N)cc1 | – | 4.47 µM [falling, single point]
38 | COc1ccc(NS(=O)(=O)c2ccc(N3CCCC3)c(NC(=S)Nc3cccc(C)c3C)c2)cc1 | – | 11.2 µM [rising, single point]
39 | Cc1cccc(C2Nc3ccccc3C(=O)N2CCc2ccccc2)n1 (stereo unspecified) | – | 7.94 µM [rising, partial curve]
40 | COc1cccc(C(=O)N2CCN(C3CCC(c4ccccc4)CC3)CC2)c1 (stereo unspecified) | – | 15.8 µM [rising, single point]

Five records drawn at random from the list so far, as already listed:
Row | SMILES | AC50 [1] | AC50 [2]
12 | CN(C)S(=O)(=O)c1ccc(N2CCCC2)c(C(=O)Nc2nc3ccc(F)cc3s2)c1 | 3.55 µM [rising, partial curve] | 3.16 µM [rising, partial curve]
26 | Cc1ccc(NC(=S)NCCSc2ccc(Cl)cc2)c(C)c1 | 35.5 µM [rising, single point] | –
9 | CCN(CC)S(=O)(=O)c1ccc(/C=C/C(=O)Nc2ccc(F)cc2F)cc1 | – | 22.4 µM [rising, partial curve, poor fit]
33 | O=C(CCSCc1cccc(Cl)c1)NCc1ccc(F)cc1Cl | – | 35.5 µM [falling, partial curve, poor fit]
39 | Cc1cccc(C2Nc3ccccc3C(=O)N2CCc2ccccc2)n1 (stereo unspecified) | – | 7.94 µM [rising, partial curve]

(further entries)

Row | SMILES | AC50 [1] | AC50 [2]
41 | C/C(=C1/SC(N2CCCC2)=NC1=O)c1ccc(Br)cc1 | 12.6 µM [falling, partial curve] | –
42 | CCOC(=O)C1(CCOc2ccccc2)CCN(Cc2cccn2-c2cccnc2)CC1 | 35.5 µM [falling, partial curve, poor fit] | 0.708 µM [falling, full curve, poor fit]
43 | COc1ccc2[nH]cc(CCNc3ccnc(-c4ccccc4C)n3)c2c1 | 11.2 µM [falling, single point] | –
44 | Cc1cccc2c1N(C(=O)CN1C(=O)c3ccccc3C1=O)C(C)(C)c1ssc(=S)c1-2 | – | 0.0708 µM [rising, full curve]
45 | CCc1nnc(NC(=O)COc2ccc([N+](=O)[O-])cc2)s1 | 3.98 µM [rising, full curve, poor fit] | –
46 | Cc1ccc2nc(NC(=O)C3CCCN(S(=O)(=O)c4cccnc4)C3)sc2c1 (stereo unspecified) | – | 31.6 µM [rising, single point]
47 | Nc1cc(=O)[nH]c(SCC(=O)Nc2nc3ccc([N+](=O)[O-])cc3s2)n1 | 0.126 µM [rising, full curve, poor fit] | –
48 | COc1ccc(Cc2noc(-c3ccccc3)n2)cc1OC | – | 20 µM [rising, single point]
49 | Cc1ccc(Cl)cc1N1CCN(Cc2nnnn2C2CCCCC2)CC1 | – | 35.5 µM [falling, single point]
50 | CCc1ccc(Sc2cc(C(=O)O)c3ccccc3n2)cc1 | – | 0.158 µM [falling, full curve, poor fit]
51 | COc1ccc(Cn2c(CO)cnc2SCc2ccc(F)cc2)cc1 | 3.16 µM [falling, partial curve] | –
52 | Cc1cccc(-c2noc(CN(C(=O)CCc3ccccc3)C(C)C)n2)c1 | – | 15.8 µM [rising, single point]
53 | CC(C)(C)N1CC2([N+](=O)[O-])CN(C(C)(C)C)CC([N+](=O)[O-])(C1)C2 | 0.1 µM [rising, full curve] | –
54 | COc1ccc(S(=O)(=O)N2CCSC2c2ccccc2)cc1 (stereo unspecified) | – | 11.2 µM [rising, single point]
55 | CCN1C(=O)C2C(c3ccccc3F)NC(Cc3ccc(O)cc3)(C(=O)OC)C2C1=O (stereo unspecified) | – | 11.2 µM [rising, partial curve, poor fit]
56 | Cc1ccc(CN=c2c([N+](=O)[O-])nn(-c3cccc(Cl)c3)n2O)cc1 | – | 6.31 µM [rising, full curve, poor fit]
57 | CS(=O)(=O)c1ccc2nc(NC(=O)CCN3C(=O)c4ccccc4C3=O)sc2c1 | 0.794 µM [falling, full curve, poor fit] | –
58 | COc1ccc(/C=C2\N=C(SC)N(c3ccccc3OC)C2=O)cc1 | 0.0355 µM [falling, full curve, poor fit] | 0.891 µM [rising, full curve]
